For 16 molecules, TEAD-luciferase reporter activity results are on record in the supplement of paper PMC10735217.

The subject of this assay is HEK293A TEAD-LUC reporter. Description: TEAD-luciferase reporter activity (YAP activation), robust Z score vs plate; higher = stronger YAP/TEAD activation. Particulars: 24 h. In general terms: In a reporter assay the amount or activity of a reporter protein is the signal.

The list shows a part of the results. Single values are uncertain here, since repeats match poorly.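 The human kidney-derived cells carry a stably integrated construct of eight TEAD-binding elements driving luciferase, read by luminescence in a drug-repurposing library screen. A compound counts as a hit when its signal is more than five robust Z scores above the plate mean.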

As to `CC(C)CC(N)C(=O)NC(Cc1ccc(OCc2ccccc2)cc1)C(=O)NC(CCC(N)=O)C(=O)NC(CC(C)C)C(N)=O` (configuration not stated), the TEAD-luciferase reporter activity (compound concentration: 200 nM) is inactive: -3.33, the TEAD-luciferase reporter activity (compound concentration: 2 uM) was inactive: -0.588 and the TEAD-luciferase reporter activity (compound concentration: 10 uM) was inactive: 2.4.

Regarding `CNC(=O)Cc1ccc2ccn(C3CCN(CCc4ccccc4F)CC3)c2c1`, the TEAD-luciferase reporter activity is, setting by setting: (compound concentration: 200 nM) inactive: -1.03; (compound concentration: 2 uM) inactive: -1.28; (compound concentration: 10 uM) inactive: -0.104.

Take `CCN(CC)c1nccc(NCc2ccc(CNc3nc(Cl)ncc3F)cc2)n1`: the TEAD-luciferase reporter activity is, setting by setting: (compound concentration: 200 nM) inactive: -1.88; (compound concentration: 2 uM) inactive: -1.02; (compound concentration: 10 uM) inactive: 0.164.

In the case of `CC(C)NC(=O)NC1CC2(CCN(C(=O)c3ccc4[nH]ccc4c3)CC2)Oc2ccccc21` (configuration not stated), the TEAD-luciferase reporter activity reads like this: (compound concentration: 200 nM) inactive: -1.94; (compound concentration: 10 uM) inactive: 0.688.

Regarding `CN1C2CCC1CN(c1cc3c(cc1F)c(=O)c(C(=O)O)cn3C1CC1)C2`, the TEAD-luciferase reporter activity (compound concentration: 200 nM) is inactive: -0.0266, the TEAD-luciferase reporter activity (compound concentration: 2 uM) was inactive: -0.113 and the TEAD-luciferase reporter activity (compound concentration: 10 uM) was inactive: 0.156.

For the molecule `CCc1cc(O)c(Oc2ccc(C(N)=O)cc2F)cc1F`, the TEAD-luciferase reporter activity was inactive: 1.15 (compound concentration: 200 nM), inactive: -1.42 (compound concentration: 2 uM) and inactive: -0.415 (compound concentration: 10 uM).

As to `c1ccc2[nH]c(-c3nc4ccccc4[nH]3)nc2c1`, the TEAD-luciferase reporter activity was inactive: 3.17 (compound concentration: 200 nM), active: 5.78 (compound concentration: 2 uM) and inactive: 4.03 (compound concentration: 10 uM).

Turning to `Cc1cccc(C)c1NC(=O)CN1CCCC1`, the TEAD-luciferase reporter activity (compound concentration: 200 nM) is inactive: -0.194, the TEAD-luciferase reporter activity (compound concentration: 2 uM) is inactive: 3.65 and the TEAD-luciferase reporter activity (compound concentration: 10 uM) was inactive: 2.75.

For the molecule `COc1cc(N)c(Cl)cc1C(=O)NC1CCN(Cc2ccc(F)cc2)CC1`, the TEAD-luciferase reporter activity was inactive: -1.82 (compound concentration: 200 nM), inactive: -0.438 (compound concentration: 2 uM) and inactive: 2.21 (compound concentration: 10 uM).

As to `CON(C)C(=O)N1N=C(c2cc(F)ccc2F)S[C@@]1(CCCN)c1ccccc1` [Filanesib], the TEAD-luciferase reporter activity (compound concentration: 200 nM) is inactive: -0.0761, the TEAD-luciferase reporter activity (compound concentration: 2 uM) was inactive: -1.78 and the TEAD-luciferase reporter activity (compound concentration: 10 uM) is inactive: -2.27.

As for `O=C(O)CC(NC(=O)[C@@H]1CCCN(C(=O)CCC2CCNCC2)C1)c1cccnc1` (some centres not stated), the TEAD-luciferase reporter activity was inactive: -0.575 (compound concentration: 200 nM), inactive: 0.68 (compound concentration: 2 uM) and inactive: -1.12 (compound concentration: 10 uM).

Consider `CC(=O)Nc1nc2c(Oc3cc(-c4ccc(C(F)(F)F)cc4)ncn3)cccc2s1`, for which the TEAD-luciferase reporter activity reads like this: (compound concentration: 200 nM) inactive: -1.28; (compound concentration: 2 uM) inactive: 0.0384; (compound concentration: 10 uM) inactive: -1.01.

As for `CN(C)CC/C=C1\c2ccccc2CN(C)c2ccccc21`, the TEAD-luciferase reporter activity was inactive: 0.258 (compound concentration: 200 nM), inactive: -0.473 (compound concentration: 2 uM) and inactive: -1.32 (compound concentration: 10 uM).

As for `OB1OB2OB(O)OB(O1)O2`, the TEAD-luciferase reporter activity by setting is: (compound concentration: 200 nM) inactive: 0.0833; (compound concentration: 2 uM) inactive: -0.204; (compound concentration: 10 uM) inactive: 0.223.

With `CCOC1O[C@H]([C@@H](COCc2ccccc2)OCc2ccccc2)[C@H](OCc2ccccc2)[C@H]1O` (some centres not stated), the TEAD-luciferase reporter activity (compound concentration: 200 nM) was inactive: -1.21, the TEAD-luciferase reporter activity (compound concentration: 2 uM) is inactive: -1.54 and the TEAD-luciferase reporter activity (compound concentration: 10 uM) was inactive: 1.44.

As to `C=C1CCN([C@H](C)[C@](O)(Cn2cncn2)c2ccc(F)cc2F)CC1` [Efinaconazole], the TEAD-luciferase reporter activity (compound concentration: 200 nM) was inactive: -0.795, the TEAD-luciferase reporter activity (compound concentration: 2 uM) is inactive: 1.6 and the TEAD-luciferase reporter activity (compound concentration: 10 uM) is inactive: -1.43.
